Here are results for 1 substance from article PMC5503940.

Protein sequences, listed by entry. Tags and fused reporters are not part of them. Residues count along the entry.
UniProt Q99661, residues 216-598: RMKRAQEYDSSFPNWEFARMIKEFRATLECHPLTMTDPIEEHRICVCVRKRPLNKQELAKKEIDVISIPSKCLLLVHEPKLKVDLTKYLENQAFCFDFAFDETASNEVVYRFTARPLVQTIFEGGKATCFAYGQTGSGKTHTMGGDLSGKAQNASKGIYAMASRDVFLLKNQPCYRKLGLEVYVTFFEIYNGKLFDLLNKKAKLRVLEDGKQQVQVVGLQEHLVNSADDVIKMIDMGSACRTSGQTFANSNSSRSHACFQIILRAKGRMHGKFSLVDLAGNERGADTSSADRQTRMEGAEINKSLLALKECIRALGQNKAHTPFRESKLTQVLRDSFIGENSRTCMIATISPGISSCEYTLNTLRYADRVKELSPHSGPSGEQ

The assay has as its target Kif2C-(sN+M) (short neck+motor construct of human Kif2C/MCAK) (human) (UniProt Q99661). Put plainly: SEC; gel filtration of Kif2C-(sN+M) alone; conditions not given; both purified.

Results are given in words; binding and its absence hold for the method and conditions named.

For the substance “Kif2C-(sN+M) (short neck+motor construct of human Kif2C/MCAK) (from UniProt Q99661 216-598) (domain or fragment)”, the binding entry was “no binding”.
